From patent publication US20230050653A1, “ROCK INHIBITOR AND PREPARATION METHOD THEREFOR AND USE THEREOF” (WUHAN LL SCIENCE AND TECHNOLOGY DEVELOPMENT CO., LTD., priority 2019, published 2023)

Amino acid sequences for entries named in this document (tags omitted).
UniProt Q13464, whole entry: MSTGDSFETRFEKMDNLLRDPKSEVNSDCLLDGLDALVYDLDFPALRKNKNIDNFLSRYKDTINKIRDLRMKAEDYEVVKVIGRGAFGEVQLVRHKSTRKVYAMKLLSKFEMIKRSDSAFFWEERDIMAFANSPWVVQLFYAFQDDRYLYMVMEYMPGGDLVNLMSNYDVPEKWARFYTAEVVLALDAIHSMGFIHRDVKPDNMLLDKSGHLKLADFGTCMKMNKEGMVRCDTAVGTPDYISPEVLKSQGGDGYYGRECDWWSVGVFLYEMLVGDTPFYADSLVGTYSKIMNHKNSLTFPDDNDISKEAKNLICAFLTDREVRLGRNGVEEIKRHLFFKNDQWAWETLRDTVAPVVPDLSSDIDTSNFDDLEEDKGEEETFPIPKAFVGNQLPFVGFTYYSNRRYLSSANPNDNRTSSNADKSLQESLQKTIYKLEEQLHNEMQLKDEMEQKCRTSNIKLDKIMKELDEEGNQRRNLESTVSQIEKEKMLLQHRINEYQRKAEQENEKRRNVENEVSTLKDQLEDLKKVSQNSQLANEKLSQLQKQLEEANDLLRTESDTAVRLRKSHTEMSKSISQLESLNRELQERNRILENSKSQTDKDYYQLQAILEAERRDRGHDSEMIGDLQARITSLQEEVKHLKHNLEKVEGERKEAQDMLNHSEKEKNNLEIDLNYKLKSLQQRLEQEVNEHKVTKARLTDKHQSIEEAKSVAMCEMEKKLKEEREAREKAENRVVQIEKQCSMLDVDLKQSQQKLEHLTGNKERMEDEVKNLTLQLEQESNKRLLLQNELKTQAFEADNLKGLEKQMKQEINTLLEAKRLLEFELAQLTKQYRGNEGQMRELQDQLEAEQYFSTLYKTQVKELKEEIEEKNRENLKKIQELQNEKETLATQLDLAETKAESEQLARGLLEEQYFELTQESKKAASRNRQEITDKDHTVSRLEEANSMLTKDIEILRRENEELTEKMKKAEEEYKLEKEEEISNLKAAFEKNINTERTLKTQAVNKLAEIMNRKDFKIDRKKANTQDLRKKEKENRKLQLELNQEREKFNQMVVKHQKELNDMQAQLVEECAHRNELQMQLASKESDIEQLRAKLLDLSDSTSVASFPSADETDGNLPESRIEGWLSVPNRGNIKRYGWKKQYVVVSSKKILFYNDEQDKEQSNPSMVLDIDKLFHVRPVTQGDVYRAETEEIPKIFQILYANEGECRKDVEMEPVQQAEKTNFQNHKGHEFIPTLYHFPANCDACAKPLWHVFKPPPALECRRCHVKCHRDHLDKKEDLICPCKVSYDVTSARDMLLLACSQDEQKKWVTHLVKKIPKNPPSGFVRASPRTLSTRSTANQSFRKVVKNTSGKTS
UniProt O75116, whole entry: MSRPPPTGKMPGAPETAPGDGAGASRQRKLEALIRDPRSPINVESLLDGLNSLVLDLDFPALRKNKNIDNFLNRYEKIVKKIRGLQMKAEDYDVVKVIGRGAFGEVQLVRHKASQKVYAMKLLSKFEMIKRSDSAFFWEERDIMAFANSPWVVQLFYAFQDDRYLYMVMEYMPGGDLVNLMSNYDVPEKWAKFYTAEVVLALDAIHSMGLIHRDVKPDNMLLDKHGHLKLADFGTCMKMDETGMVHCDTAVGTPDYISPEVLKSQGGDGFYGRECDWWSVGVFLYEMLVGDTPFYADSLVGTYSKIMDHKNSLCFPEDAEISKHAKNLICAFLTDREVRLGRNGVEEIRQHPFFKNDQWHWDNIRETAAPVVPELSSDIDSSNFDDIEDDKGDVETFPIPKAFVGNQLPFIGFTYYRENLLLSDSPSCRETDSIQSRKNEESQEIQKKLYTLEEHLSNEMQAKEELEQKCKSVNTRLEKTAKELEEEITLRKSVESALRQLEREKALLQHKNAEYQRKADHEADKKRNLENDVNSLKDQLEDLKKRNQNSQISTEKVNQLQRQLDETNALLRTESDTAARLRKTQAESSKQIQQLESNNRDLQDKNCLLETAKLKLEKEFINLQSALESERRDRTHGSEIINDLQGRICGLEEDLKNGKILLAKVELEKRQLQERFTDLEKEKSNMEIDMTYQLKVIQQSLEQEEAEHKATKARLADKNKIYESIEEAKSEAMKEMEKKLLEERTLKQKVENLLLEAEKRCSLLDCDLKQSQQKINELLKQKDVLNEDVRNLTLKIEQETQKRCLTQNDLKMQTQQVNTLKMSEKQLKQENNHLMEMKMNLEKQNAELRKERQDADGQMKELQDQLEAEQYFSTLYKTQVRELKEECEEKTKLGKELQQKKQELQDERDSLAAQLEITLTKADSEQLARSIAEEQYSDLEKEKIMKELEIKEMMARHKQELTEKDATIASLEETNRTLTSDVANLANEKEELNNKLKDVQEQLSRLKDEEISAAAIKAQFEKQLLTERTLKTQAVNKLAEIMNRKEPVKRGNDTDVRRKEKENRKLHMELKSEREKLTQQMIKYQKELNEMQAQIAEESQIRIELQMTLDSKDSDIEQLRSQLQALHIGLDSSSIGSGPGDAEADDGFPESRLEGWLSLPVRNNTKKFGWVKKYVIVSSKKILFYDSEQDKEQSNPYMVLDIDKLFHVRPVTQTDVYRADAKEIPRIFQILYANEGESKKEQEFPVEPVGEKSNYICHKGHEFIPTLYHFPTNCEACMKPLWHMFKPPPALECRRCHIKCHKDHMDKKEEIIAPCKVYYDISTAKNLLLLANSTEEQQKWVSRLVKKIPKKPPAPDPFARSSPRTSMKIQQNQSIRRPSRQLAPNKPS

Legend:
[1] = target: ROCK1 kinase (Homo sapiens, UniProt Q13464); assay: In vitro evaluation of ROCK1 kinase selectivity (HTRF KinEASE-STK time-resolved fluorometric assay); format: biochemical; details: read-out: IC50 for ROCK1
Experimental: ROCK1 activity was detected using a 96-well (Cisbio) time-resolved fluorometric assay. The assay for ROCK1 was performed in the following assay buffer: 5 mM MgCl2 (Sigma), 1 mM DTT (Sigma) and 1× kinase buffer. The kinase buffer was used for dilution. 7.5 μL of ROCK1 kinase (Invitrogen) was added to a 96-well microplate to reach a final concentration of 0.4 ng/μL, and then 0.25 μL of test compound (DMSO content: 1%) was added. The mixture was incubated at room temperature for 0.5 h. To start the reaction, the kinase buffer was also used to mix ATP (Aladdin) and the substrate STK-substrate 2-biotin. 7.5 μL of the mixed solution was added to the microplate to reach final concentrations of 3.53 μM and 1 μM. The resulting mixture was incubated for 2 h at room temperature. […] was mixed with STK antibody-Cryptate, and then an appropriate volume of the mixture was mixed with an equal volume of streptavidin-XL665. 10 μL of the resulting mixture was added to stop the reaction. After further incubation for about 1 h, the microplate was read on a Molecular Devices SpectraMax i3x multifunctional microplate reader. The kinase buffer, the STK-substrate 2-biotin, the detection buffer, the STK antibody-Cryptate, and the streptavidin-XL665 were all from HTRF KinEASE-STK kit (Cisbio, 1000 tests, 61[…]). […]

[2] = target: ROCK2 kinase (Homo sapiens, UniProt O75116); assay: In vitro evaluation of ROCK2 kinase activity (HTRF KinEASE-STK time-resolved fluorometric assay); format: biochemical; details: read-out: IC50 for ROCK2
Experimental: ROCK2 activity screening. ROCK2 activity was detected using a 96-well (Cisbio) time-resolved fluorometric assay. The assay for ROCK2 was performed in the following assay buffer: 5 mM MgCl2 (Sigma), 1 mM DTT (Sigma) and 1× kinase buffer. The kinase buffer was used for dilution. 7.5 μL of ROCK2 kinase (Invitrogen, PV3759) was added to a 96-well microplate to reach a final concentration of 0.4 ng/μL, and then 0.25 μL of test compound (DMSO content: 1% (volume fraction)) was added. The mixture was incubated at room temperature for 0.5 h. To start the reaction, the kinase buffer was used to mix ATP (Aladdin) and the substrate STK-substrate 2-biotin. 7.5 μL of the mixed solution was added to the microplate to reach final concentrations of 6.739 μM and 1 μM. The resulting mixture was incubated for 2 h at room temperature. 5 mL of detection buffer was mixed with STK antibody-Cryptate, and then an appropriate volume of the mixture was mixed with an equal volume of streptavidin-XL665. 10 μL of the resulting mixture was added to the microplate to stop the reaction. After further incubation for about 1 h, the microplate was read on a Molecular Devices SpectraMax i3x multifunctional microplate reader. The kinase buffer, the STK-substrate 2-biotin, the detection buffer, the STK antibody-Cryptate, and the streptavidin-XL665 were all from HTRF KinEASE-STK kit (Cisbio, 1000 tests, 61[…]). […]

COc1cccc(CCC(=O)N2CCc3cc(-c4c[nH]nc4N)c(F)cc32)c1 [Compound T383]
IC50 [1]: 0.5 to 5 µM
IC50 [2]: 0.05 to 0.5 µM

Structures were worked out from names or drawings and are uncertain.
